According to article PMC4884081:
These are yes or no findings as the source states them, for the method shown. For some assays here: In cells and extracts the contact can be indirect. Some entries that bind do so weakly or less than the wild type. Where a sequence is shown, tags or fusion partners need not be part of it.

By UniProt entry, the sequences of proteins in these tests, tags left out. Where a name states a change or a piece, a line headed by the entry shows the natural chain unless it says otherwise.
UniProt P10071: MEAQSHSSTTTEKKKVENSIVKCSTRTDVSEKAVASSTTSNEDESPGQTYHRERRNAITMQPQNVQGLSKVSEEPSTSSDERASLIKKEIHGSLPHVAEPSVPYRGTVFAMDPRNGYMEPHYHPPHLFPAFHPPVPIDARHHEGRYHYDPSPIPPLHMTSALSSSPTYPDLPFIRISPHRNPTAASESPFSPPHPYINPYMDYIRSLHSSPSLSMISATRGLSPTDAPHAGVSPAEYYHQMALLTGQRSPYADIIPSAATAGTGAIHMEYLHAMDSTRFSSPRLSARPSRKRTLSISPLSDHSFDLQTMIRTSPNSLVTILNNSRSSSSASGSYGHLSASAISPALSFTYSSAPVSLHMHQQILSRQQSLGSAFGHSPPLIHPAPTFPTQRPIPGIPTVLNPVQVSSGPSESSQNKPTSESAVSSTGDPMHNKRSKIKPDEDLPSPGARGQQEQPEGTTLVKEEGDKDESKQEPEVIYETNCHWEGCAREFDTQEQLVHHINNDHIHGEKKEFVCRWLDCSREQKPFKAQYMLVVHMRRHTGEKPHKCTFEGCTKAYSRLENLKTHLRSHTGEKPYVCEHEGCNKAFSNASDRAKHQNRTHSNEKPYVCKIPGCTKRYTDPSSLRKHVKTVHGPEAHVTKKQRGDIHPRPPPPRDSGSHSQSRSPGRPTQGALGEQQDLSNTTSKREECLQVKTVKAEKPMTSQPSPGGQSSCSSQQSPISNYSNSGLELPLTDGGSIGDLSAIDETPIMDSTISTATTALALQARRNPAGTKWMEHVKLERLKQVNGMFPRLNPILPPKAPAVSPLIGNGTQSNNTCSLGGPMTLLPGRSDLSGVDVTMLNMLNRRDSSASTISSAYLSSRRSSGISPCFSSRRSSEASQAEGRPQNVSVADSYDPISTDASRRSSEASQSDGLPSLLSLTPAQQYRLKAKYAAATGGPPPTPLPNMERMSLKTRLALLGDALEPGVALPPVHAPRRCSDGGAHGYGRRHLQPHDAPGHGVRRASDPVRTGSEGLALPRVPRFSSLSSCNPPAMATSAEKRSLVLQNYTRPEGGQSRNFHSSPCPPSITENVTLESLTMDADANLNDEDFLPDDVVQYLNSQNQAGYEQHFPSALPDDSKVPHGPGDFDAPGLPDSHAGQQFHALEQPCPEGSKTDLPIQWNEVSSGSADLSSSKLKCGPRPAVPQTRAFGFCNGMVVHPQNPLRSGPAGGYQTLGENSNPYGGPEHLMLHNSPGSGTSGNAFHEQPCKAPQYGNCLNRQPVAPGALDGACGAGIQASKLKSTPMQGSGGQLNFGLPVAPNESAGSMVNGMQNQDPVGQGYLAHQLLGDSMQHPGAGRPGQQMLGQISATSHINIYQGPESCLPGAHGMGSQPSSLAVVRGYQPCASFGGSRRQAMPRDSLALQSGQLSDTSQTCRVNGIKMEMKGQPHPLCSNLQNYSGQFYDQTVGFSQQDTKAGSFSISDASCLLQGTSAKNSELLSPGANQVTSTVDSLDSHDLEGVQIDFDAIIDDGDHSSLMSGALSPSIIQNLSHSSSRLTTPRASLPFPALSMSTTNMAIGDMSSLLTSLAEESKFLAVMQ

Legend:
[1] = target: T1, GST-Set7 (UniProt Q8WTS6); assay: pull-down; GST-Set7 as bait with MBP-tagged Gli3 truncated fragments (MBP-K436, MBP-K595); proteins expressed in E. coli; both purified
T1 sequence: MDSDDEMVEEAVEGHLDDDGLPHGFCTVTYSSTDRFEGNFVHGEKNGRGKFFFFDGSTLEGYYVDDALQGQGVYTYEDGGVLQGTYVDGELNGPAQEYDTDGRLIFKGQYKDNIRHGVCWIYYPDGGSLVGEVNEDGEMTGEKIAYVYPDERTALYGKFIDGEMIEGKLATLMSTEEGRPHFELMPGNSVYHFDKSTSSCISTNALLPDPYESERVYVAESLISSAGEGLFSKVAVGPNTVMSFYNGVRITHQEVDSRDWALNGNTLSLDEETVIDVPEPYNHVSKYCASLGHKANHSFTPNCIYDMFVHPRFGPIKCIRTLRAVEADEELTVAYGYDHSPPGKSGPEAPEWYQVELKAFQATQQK

[2] = target: T1, GST-Set7; assay: pull-down; GST-Set7 as bait; flag-Gli3 from NIH-3T3 cells in the presence of Shh; only the target purified

Substance | binding [1] | binding [2]
MBP-K595 (amino acids from 464 to 666 of Gli3) (from UniProt P10071 464-666) (domain or fragment) | binds | 
flag-tagged Gli3 full-length (from UniProt P10071 1-1580) |  | binds
